Measured values reported in patent publication US20150044251A1 (Novartis, published 2015).
These are yes or no findings as the source states them, for the method shown. Some binding calls cover weakened binding; strength is not graded here.

The chains behind the UniProt entries cited, without tags or fusion partners. Where a name states a change or a piece, a line headed by the entry shows the natural chain unless it says otherwise.
UniProt Q2FKG1: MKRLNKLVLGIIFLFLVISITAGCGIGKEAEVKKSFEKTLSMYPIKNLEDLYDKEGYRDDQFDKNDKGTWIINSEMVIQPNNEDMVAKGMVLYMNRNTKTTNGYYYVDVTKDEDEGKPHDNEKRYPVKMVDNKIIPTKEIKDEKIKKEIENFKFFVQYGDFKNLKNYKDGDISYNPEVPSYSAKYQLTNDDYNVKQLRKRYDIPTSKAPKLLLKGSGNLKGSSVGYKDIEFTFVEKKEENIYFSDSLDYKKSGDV

Target: Sta011 (Staphylococcus aureus) (UniProt Q2FKG1)
Assay: capillary electrophoresis (SDS-MW) of tetravalent formulation, pH 6, no EDTA, 25 C up to 72 h; attributed to redox reactions

B1: EsxAB hybrid polypeptide (other)
chain: MAMIKMSPEEIRAKSQSYGQGSDQIRQILSDLTRAQGEIAANWEGQAFSRFEEQFQQLSPKVEKFAQLLEEIKQQLNSTADAVQEQDQQLSNNFGLQASGGGSGGYKGIKADGGKVDQAKQLAAKTAKDIEACQKQTQQLAEYIEGSDWEGQFANKVKDVLLIMAKFQEELVQPMADHQKAIDNLSQNLAKYDTLSIKQGLDRVNP
notes: also called EsxAB monomer
binding: binds
